Assay [1] has as its target human formylpeptide receptor FPR2 (residues 1-342), cryo-EM construct (human) (UniProt P25090). The assay is described as follows: cryo-EM structure; FPR2-Gi-scFv16 complexes; 10 μM fMLFII or 20 μM CGEN-855A added to the suspension of Sf9 cells that express FPR2 and Gi, 5 μM kept in all buffers; 3.1 and 2.9 Å; only the binder purified.
Assay [2] addresses human formylpeptide receptor FPR1 (residues 1-333), cryo-EM construct (human) (UniProt P21462). The assay is described as follows: cryo-EM structure; fMLFII-FPR1-Gi-scFv16 complex; 10 μM fMLFII added to the suspension of Sf9 cells that express FPR1 and Gi, 5 μM kept in all buffers; 3.2 Å; only the binder purified.

Chains of the proteins cited; added tags and fusions are not shown. Residues count along the entry.
UniProt P25090, residues 1-342: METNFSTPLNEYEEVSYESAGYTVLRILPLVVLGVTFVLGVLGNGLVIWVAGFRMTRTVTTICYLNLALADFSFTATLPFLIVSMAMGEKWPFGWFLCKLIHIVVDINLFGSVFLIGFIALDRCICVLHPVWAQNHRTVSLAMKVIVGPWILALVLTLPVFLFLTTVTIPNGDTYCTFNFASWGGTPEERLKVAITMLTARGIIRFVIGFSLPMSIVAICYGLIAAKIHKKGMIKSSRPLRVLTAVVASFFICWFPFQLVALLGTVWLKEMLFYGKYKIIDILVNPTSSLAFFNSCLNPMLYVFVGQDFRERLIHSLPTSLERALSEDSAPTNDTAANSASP
UniProt P21462, residues 1-333: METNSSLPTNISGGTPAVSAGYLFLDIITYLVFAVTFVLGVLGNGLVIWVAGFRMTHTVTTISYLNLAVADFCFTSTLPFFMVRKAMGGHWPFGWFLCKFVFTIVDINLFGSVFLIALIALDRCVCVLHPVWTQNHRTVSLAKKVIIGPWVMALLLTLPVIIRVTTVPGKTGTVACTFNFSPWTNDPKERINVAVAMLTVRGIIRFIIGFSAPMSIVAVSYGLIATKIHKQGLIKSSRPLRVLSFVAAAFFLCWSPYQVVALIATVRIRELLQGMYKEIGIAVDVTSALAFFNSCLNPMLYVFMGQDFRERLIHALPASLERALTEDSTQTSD

No constants are given. Whether binding was seen depends on the method and setting. Some results given as binding are weak or reduced against the parent protein; the word gives no strength.

With MLFII (N-formyl methionine at the N-terminus (fMet1)) [fMLFII], the binding result in assay [1] and in assay [2] was “binds” in each case.
